Laboratory results as given in patent US9247740B2, “Isoxazoline derivatives as insecticidal compounds” (Syngenta Participations AG, priority 2011, dated 2016).
Some results were stated once for a whole list of compounds, not compound by compound. At least one compound was matched to its structure with a doubt left.

Legend:
Assay type in all cases: in vivo
[1] = system: Plutella xylostella (Diamond Back Moth); assay: Plutella xylostella larval test on artificial diet; settings: 200 ppm (concentration in well 18 ppm), L2 larvae, larval mortality and growth regulation after 6 days
From the text: (§1) This Example illustrates the insecticidal and acaricidal properties of compounds of formula (I).

[2] = system: Thrips tabaci (Onion Thrips); assay: Thrips tabaci leaf disc spray test; settings: 200 ppm spray on sunflower leaf discs, mixed ages; mortality after 7 days
From the text: as §1

[3] = system: Tetranychus urticae (Two-Spotted Spider Mite); assay: Tetranychus urticae leaf disc spray test; settings: 200 ppm spray on bean leaf discs, mixed ages; egg, larval and adult mortality 8 days later
From the text: as §1

[4] = system: Heliothis virescens (Tobacco Budworm); assay: Heliothis virescens egg test on artificial diet; settings: 200 ppm (concentration in well 18 ppm), eggs 0-24 h old on artificial diet; egg mortality, larval mortality, growth regulation after 4 days
From the text: as §1

[5] = system: Spodoptera littoralis (Egyptian Cotton Leafworm); assay: Spodoptera littoralis leaf disc spray test; settings: 200 ppm spray on cotton leaf discs; mortality, feeding behavior, growth regulation 3 days after treatment
Procedure: This Example illustrates the insecticidal and acaricidal properties of compounds of formula (I). Tests were performed as follows:

Cc1cc(C2=NOC(c3cc(C#N)cc(C#N)c3)(C(F)(F)F)C2)ccc1C(=O)NC1CS(=O)(=O)C1 (stereo not shown) [Compound A099]
control of Plutella xylostella [1]: at least 80%
control of Thrips tabaci [2]: at least 80%
control of Tetranychus urticae [3]: at least 80%

Cc1cc(C2=NOC(c3cc(C#N)cc(C#N)c3)(C(F)(F)F)C2)ccc1C(=O)NC1(C)CSC1 (stereo not shown) [Compound A100]
control of Plutella xylostella [1]: at least 80%

Cc1cc(C2=NOC(c3cc(C#N)cc(C#N)c3)(C(F)(F)F)C2)ccc1C(=O)NC1CSC1 (stereo not shown) [Compound A101]
control of Plutella xylostella [1]: at least 80%
control of Thrips tabaci [2]: at least 80%
control of Tetranychus urticae [3]: at least 80%

Cc1cc(C2=NOC(c3cc(C#N)cc(C#N)c3)(C(F)(F)F)C2)ccc1C(=O)NC1C[S+]([O-])C1 (stereo not shown) [Compound A102]
control of Plutella xylostella [1]: at least 80%
control of Thrips tabaci [2]: at least 80%
control of Tetranychus urticae [3]: at least 80%

Cc1cc(C2=NOC(c3cc(Cl)c([S+](C)[O-])c(Cl)c3)(C(F)(F)F)C2)ccc1C(=O)NC1CS(=O)(=O)C1 (stereo not shown) [Compound A149]
control of Plutella xylostella [1]: at least 80%
control of Thrips tabaci [2]: at least 80%
control of Tetranychus urticae [3]: at least 80%

Cc1cc(C2=NOC(c3cc(Cl)c([S+](C)[O-])c(Cl)c3)(C(F)(F)F)C2)ccc1C(=O)NC1C[S+]([O-])C1 (stereo not shown) [Compound A151]
control of Plutella xylostella [1]: at least 80%
control of Thrips tabaci [2]: at least 80%
control of Tetranychus urticae [3]: at least 80%

Cc1cc(C2=NOC(c3cc(Cl)c(S(C)(=O)=O)c(Cl)c3)(C(F)(F)F)C2)ccc1C(=O)NC1CS(=O)(=O)C1 (stereo not shown) [Compound A153]
control of Heliothis virescens [4]: at least 80%
control of Plutella xylostella [1]: at least 80%
control of Thrips tabaci [2]: at least 80%
control of Tetranychus urticae [3]: at least 80%

Cc1cc(C2=NOC(c3cc(Cl)c(S(C)(=O)=O)c(Cl)c3)(C(F)(F)F)C2)ccc1C(=O)NC1(C)CSC1 (stereo not shown) [Compound A154]
control of Plutella xylostella [1]: at least 80%

Cc1cc(C2=NOC(c3cc(Cl)c(S(C)(=O)=O)c(Cl)c3)(C(F)(F)F)C2)ccc1C(=O)NC1C[S+]([O-])C1 (stereo not shown) [Compound A155]
control of Plutella xylostella [1]: at least 80%
control of Thrips tabaci [2]: at least 80%
control of Tetranychus urticae [3]: at least 80%

Cc1cc(C2=NOC(c3cc(Cl)c(S(C)(=O)=O)c(Cl)c3)(C(F)(F)F)C2)ccc1C(=O)NC1CSC1 (stereo not shown) [Compound A156]
control of Plutella xylostella [1]: at least 80%
control of Tetranychus urticae [3]: at least 80%

CC(=O)Oc1c(Cl)cc(C2(C(F)(F)F)CC(c3ccc(C(=O)NC4CS(=O)(=O)C4)c(C)c3)=NO2)cc1Cl (stereo not shown) [Compound A161]
control of Plutella xylostella [1]: at least 80%

Cc1cc(C2=NOC(c3cc(Cl)c(OS(C)(=O)=O)c(Cl)c3)(C(F)(F)F)C2)ccc1C(=O)NC1CS(=O)(=O)C1 (stereo not shown) [Compound A162]
control of Spodoptera littoralis [5]: at least 80%
control of Heliothis virescens [4]: at least 80%
control of Plutella xylostella [1]: at least 80%
control of Tetranychus urticae [3]: at least 80%

Cc1cc(C2=NOC(c3cc(Cl)c(OS(=O)(=O)C(F)(F)F)c(Cl)c3)(C(F)(F)F)C2)ccc1C(=O)NC1CS(=O)(=O)C1 (stereo not shown) [Compound A165]
control of Spodoptera littoralis [5]: at least 80%
control of Heliothis virescens [4]: at least 80%
control of Plutella xylostella [1]: at least 80%
control of Tetranychus urticae [3]: at least 80%

Cc1cc(C2=NOC(c3cc(Cl)c(SCC(F)(F)F)c(Cl)c3)(C(F)(F)F)C2)ccc1C(=O)NC1C[S+]([O-])C1 (stereo not shown) [Compound A172]
control of Spodoptera littoralis [5]: at least 80%
control of Heliothis virescens [4]: at least 80%
control of Plutella xylostella [1]: at least 80%
control of Tetranychus urticae [3]: at least 80%

Cc1cc(C2=NOC(c3cc(Cl)c(SCC(F)(F)F)c(Cl)c3)(C(F)(F)F)C2)ccc1C(=O)NC1CSC1 (stereo not shown) [Compound A173]
control of Plutella xylostella [1]: at least 80%
control of Tetranychus urticae [3]: at least 80%

Cc1cc(C2=NOC(c3cc(Cl)c([S+]([O-])CC(F)(F)F)c(Cl)c3)(C(F)(F)F)C2)ccc1C(=O)NC1C[S+]([O-])C1 (stereo not shown) [Compound A175]
control of Plutella xylostella [1]: at least 80%
control of Thrips tabaci [2]: at least 80%

Cc1cc(C2=NOC(c3cc(Cl)cc(Cl)c3)(C(F)(F)F)C2)ccc1C(=O)NC1CN(C)C1 (stereo not shown) [Compound A197]
control of Spodoptera littoralis [5]: at least 80%
control of Plutella xylostella [1]: at least 80%
control of Thrips tabaci [2]: at least 80%
control of Tetranychus urticae [3]: at least 80%

Cc1cc(C2=NOC(c3cc(Cl)cc(Cl)c3)(C(F)(F)F)C2)ccc1C(=O)NC1CS(=O)(=NC#N)C1 (stereo not shown) [Compound A199]
control of Spodoptera littoralis [5]: at least 80%
control of Tetranychus urticae [3]: at least 80%

CC1(NC(=O)c2ccc(C3=NOC(c4cc(Cl)cc(Cl)c4)(C(F)(F)F)C3)cc2C#N)CSC1 (stereo not shown) [Compound B07]
control of Plutella xylostella [1]: at least 80%

N#Cc1cc(C2=NOC(c3cc(Cl)cc(Cl)c3)(C(F)(F)F)C2)ccc1C(=O)NC1CSC1 (stereo not shown) [Compound B08]
control of Spodoptera littoralis [5]: at least 80%
control of Heliothis virescens [4]: at least 80%
control of Plutella xylostella [1]: at least 80%
control of Thrips tabaci [2]: at least 80%

CC1(NC(=O)c2ccc(C3=NOC(c4cc(Cl)cc(Cl)c4)(C(F)(F)F)C3)cn2)CSC1 (stereo not shown) [Compound B41]
control of Spodoptera littoralis [5]: at least 80%
control of Heliothis virescens [4]: at least 80%
control of Plutella xylostella [1]: at least 80%
control of Thrips tabaci [2]: at least 80%

Cc1nc(C2=NOC(c3cc(Cl)cc(Cl)c3)(C(F)(F)F)C2)ccc1C(=O)NC1(C)CSC1 (stereo not shown) [Compound B48]
control of Plutella xylostella [1]: at least 80%
control of Tetranychus urticae [3]: at least 80%

CC(=O)c1cc(C2=NOC(c3cc(Cl)cc(Cl)c3)(C(F)(F)F)C2)ccc1C(=O)NC1CS(=O)(=O)C1 (stereo not shown) [Compound B52]
control of Heliothis virescens [4]: at least 80%
control of Plutella xylostella [1]: at least 80%

CC(=O)c1cc(C2=NOC(c3cc(Cl)cc(Cl)c3)(C(F)(F)F)C2)ccc1C(=O)NC1C[S+]([O-])C1 (stereo not shown) [Compound B53]
control of Spodoptera littoralis [5]: at least 80%
control of Heliothis virescens [4]: at least 80%
control of Plutella xylostella [1]: at least 80%
control of Thrips tabaci [2]: at least 80%

CC(=O)c1cc(C2=NOC(c3cc(Cl)cc(Cl)c3)(C(F)(F)F)C2)ccc1C(=O)NC1CSC1 (stereo not shown) [Compound B54]
control of Plutella xylostella [1]: at least 80%

CC1(NC(=O)c2ccc(C3=NOC(c4cc(Cl)cc(Cl)c4)(C(F)(F)F)C3)cc2)CSC1 (stereo not shown) [Compound B60]
control of Plutella xylostella [1]: at least 80%

O=C(OCc1cc(C2=NOC(c3cc(Cl)cc(Cl)c3)(C(F)(F)F)C2)ccc1C(=O)NC1CS(=O)(=O)C1)c1ccccc1 (stereo not shown) [Compound B64]
control of Spodoptera littoralis [5]: at least 80%
control of Heliothis virescens [4]: at least 80%
control of Plutella xylostella [1]: at least 80%
control of Tetranychus urticae [3]: at least 80%

CS(=O)(=O)Cc1cc(C2=NOC(c3cc(Cl)cc(Cl)c3)(C(F)(F)F)C2)ccc1C(=O)NC1CS(=O)(=O)C1 (stereo not shown) [Compound B65]
control of Plutella xylostella [1]: at least 80%

C[S+]([O-])Cc1cc(C2=NOC(c3cc(Cl)cc(Cl)c3)(C(F)(F)F)C2)ccc1C(=O)NC1CS(=O)(=O)C1 (stereo not shown) [Compound B66]
control of Plutella xylostella [1]: at least 80%
control of Thrips tabaci [2]: at least 80%
control of Tetranychus urticae [3]: at least 80%
